From patent US7049311B1, “Pyrrolbenzodiazepines” (Spirogen Limited, priority 1998, dated 2006)
Some entries share one result that the patent states for a list of compounds.

Tested on: human tumour cells cultivated in hollow fibres implanted in mice
Experiment: NCI Hollow Fibre Assay
Assay type: in vivo
Conditions: subcutaneous fibres; 2 points per dose giving 50% or greater reduction in viable cell mass; listed as UP2604
Description: The Biological testing Branch of the Developmental Therapeutics Program of the NCI has adopted a preliminary in vivo screening tool for assessing the potential anticancer activity of compounds identified by the large scale in vitro cell screen. For these assays, human tumour cells are cultivated in polyvinylidene (PVDF) hollow fibres, and a sample of each cell line is implanted into each of two physiologic compartments (intraperitoneal and subcutaneaous) in mice. Each test mouse received a total of 6 fibres (3 intraperitoneally and 3 subcutaneously) representing 3 distinct cancer cell lines. These mice are treated with potential antitumour compounds at each of 2 test doses by the intraperitoneal route using a QD×4 treatment schedule. Vehicle controls consist of 6 mice receiving the compound diluent only. […] To assess anticancer effects, the viable cell mass is determined for each of the cell lines using a formazyn dye (MTT) conversion assay. From this, the % T/C can be calculated using the average optical density of compound treated samples divided by the average optical; density of the vehicle controls. In addition, the net increase in cell mass can be determined for each sample, as a sample of fibre cultures are assessed for viable cell mass on the day of implantation into mice. Thus, the cytostatic and cytocidal capacities of the test compound can be assessed. […]

SMILES: C=C1C[C@H]2C=Nc3cc(OCc4ccccc4)c(OC)cc3C(=O)N2C1 [UP2004 (70), (11aS)-8-Benzyloxy-7-methoxy-2-methylidene-1,2,3,11a-tetrahydro-5H-pyrrolo[2,1-c][1,4]benzodiazepin-5-one]
- SC score: higher than 8
